PubChem BioAssay AID652243 | Drosophila RNAi Screening Center | 2013
In all, the deposit lists about 24,000 reagents; this is an unselected part of those that have a named target and a result. Over the whole deposit, 246 (1%) are marked active. 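Plates not normalised; calls are printed but the firefly/Renilla ratio behind them is not deposited; fold cut for lowering reported inconsistently.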 Raw values vary from plate to plate and are shown uncorrected. The record does not give: the amount of reagent.

- Aim: 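Fly regulators of androgen-dependent reporter output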 (primary screen)
- Cell system: Drosophila S2R+ cells
- Knock-down reagent: long dsRNA against Drosophila genes
- Duration: 72 h (48 h, then 24 h hormone)
- Conditions: synthetic androgen R1881 at 10 nM for 24 h
- Measured: 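Firefly light from an androgen-responsive reporter and Renilla control light per well, raw and unnormalised, for each of two replicates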
- Direction: firefly reporter light: higher = more light from androgen-responsive reporter; Renilla control light: higher = more constitutive control signal (cell number, transfection)
- Rule for the call: 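Across duplicate plates, a knock-down whose log firefly/Renilla ratio shifted a set fold down or up from the GFP/LacZ control mean was a hit; the downward cut appears as both 1.5 and 3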
- Calls: active = hit: reporter lowered or raised; inactive = no hit

| target gene | amplicon | firefly reporter light, replicate 1 | firefly reporter light, replicate 2 | Renilla control light, replicate 1 | Renilla control light, replicate 2 | call |
| --- | --- | --- | --- | --- | --- | --- |
| Chro (Chromator) | DRSC11630 | 25259 | 30577 | 2.15e5 | 2.55e5 | inactive |
| Ubi-p63E (Ubiquitin-63E) | DRSC22016 | 4.78e5 | 4.37e5 | 1.52e6 | 1.19e6 | inactive |
| CG15628 | DRSC00256 | 17684 | 20474 | 92333 | 80830 | inactive |
| CG15628 | DRSC00463 | 64949 | 65256 | 5.10e5 | 9.09e5 | inactive |
| Dref (DNA replication-related element factor) | DRSC03319 | 7.21e5 | 1.07e6 | 5.35e5 | 7.58e5 | inactive |
| CG33296 | DRSC00998 | 1.85e5 | 1.49e5 | 6.16e5 | 5.32e5 | inactive |
| CG33296 | DRSC23839 | 1.01e6 | 8.07e5 | 1.30e6 | 1.30e6 | inactive |
| CG3511 | DRSC04382 | 6.83e5 | 7.55e5 | 1.23e6 | 1.42e6 | inactive |
| CG3511 | DRSC28281 | 4.14e5 | 6.55e5 | 9.14e5 | 1.08e6 | inactive |
| Gle1 (Gle1 RNA export mediator) | DRSC06485 | 5.91e5 | 5.47e5 | 7.37e5 | 6.25e5 | inactive |
| Gle1 (Gle1 RNA export mediator) | DRSC29960 | 5.67e5 | 4.44e5 | 1.17e6 | 1.15e6 | inactive |
| Fs (Follistatin) | DRSC06258 | 5.87e5 | 6.45e5 | 1.98e6 | 2.41e6 | active |
| Fs (Follistatin) | DRSC06259 | 20041 | 19208 | 6.43e5 | 6.43e5 | active |
| Fs (Follistatin) | DRSC23507 | 5.37e5 | 7.12e5 | 5.60e5 | 5.45e5 | inactive |
| Prx2 (Peroxiredoxin 2) | DRSC20256 | 4.63e5 | 5.11e5 | 3.38e6 | 3.30e6 | inactive |
| Prx2 (Peroxiredoxin 2) | DRSC29996 | 3.50e5 | 1.62e5 | 1.10e6 | 9.75e5 | inactive |
| Eig71Eg (Ecdysone-induced gene 71Eg) | DRSC11154 | 2.84e5 | 2.11e5 | 2.91e6 | 2.48e6 | inactive |
| l(1)sc (lethal of scute) | DRSC18789 | 1.80e5 | 1.85e5 | 2.72e6 | 1.93e6 | inactive |
| l(1)sc (lethal of scute) | DRSC28734 | 4.88e5 | 4.71e5 | 8.84e5 | 9.22e5 | inactive |

9 entries already listed, sorted by “firefly reporter light, replicate 2”, lowest first:
| target gene | amplicon | firefly reporter light, replicate 1 | firefly reporter light, replicate 2 | Renilla control light, replicate 1 | Renilla control light, replicate 2 | call |
| --- | --- | --- | --- | --- | --- | --- |
| Fs (Follistatin) | DRSC06259 | 20041 | 19208 | 6.43e5 | 6.43e5 | active |
| Prx2 (Peroxiredoxin 2) | DRSC29996 | 3.50e5 | 1.62e5 | 1.10e6 | 9.75e5 | inactive |
| l(1)sc (lethal of scute) | DRSC18789 | 1.80e5 | 1.85e5 | 2.72e6 | 1.93e6 | inactive |
| Eig71Eg (Ecdysone-induced gene 71Eg) | DRSC11154 | 2.84e5 | 2.11e5 | 2.91e6 | 2.48e6 | inactive |
| Gle1 (Gle1 RNA export mediator) | DRSC29960 | 5.67e5 | 4.44e5 | 1.17e6 | 1.15e6 | inactive |
| l(1)sc (lethal of scute) | DRSC28734 | 4.88e5 | 4.71e5 | 8.84e5 | 9.22e5 | inactive |
| Prx2 (Peroxiredoxin 2) | DRSC20256 | 4.63e5 | 5.11e5 | 3.38e6 | 3.30e6 | inactive |
| Fs (Follistatin) | DRSC06258 | 5.87e5 | 6.45e5 | 1.98e6 | 2.41e6 | active |
| Fs (Follistatin) | DRSC23507 | 5.37e5 | 7.12e5 | 5.60e5 | 5.45e5 | inactive |

Additional reagents follow:
| target gene | amplicon | firefly reporter light, replicate 1 | firefly reporter light, replicate 2 | Renilla control light, replicate 1 | Renilla control light, replicate 2 | call |
| --- | --- | --- | --- | --- | --- | --- |
| NO66 (Nucleolar protein 66) | DRSC18252 | 1.42e5 | 1.05e5 | 8.91e5 | 7.19e5 | inactive |
| CG9098 | DRSC03136 | 4.23e5 | 4.23e5 | 3.71e6 | 2.64e6 | inactive |
| CG9098 | DRSC22501 | 4.13e5 | 8.06e5 | 1.52e6 | 2.25e6 | inactive |
| CG9098 | DRSC28828 | 3.32e5 | 2.99e5 | 7.79e5 | 9.60e5 | inactive |
| CG9536 | DRSC03254 | 6.50e5 | 7.32e5 | 1.19e6 | 1.20e6 | inactive |
| CG9536 | DRSC24736 | 7.81e5 | 8.76e5 | 1.02e6 | 1.01e6 | inactive |
| CG31769 | DRSC01361 | 2.63e5 | 3.03e5 | 5.49e5 | 76962 | inactive |
| CG8132 | DRSC16383 | 87409 | 1.25e5 | 1.40e6 | 1.69e6 | inactive |
| CG13720 | DRSC08329 | 2.82e5 | 2.94e5 | 1.07e6 | 1.23e6 | inactive |
| CG13720 | DRSC23787 | 1.03e6 | 9.19e5 | 8.32e5 | 8.34e5 | inactive |
| Helz (Helicase with zinc finger) | DRSC11072 | 1.03e6 | 8.18e5 | 2.33e6 | 1.93e6 | inactive |
| ppk11 (pickpocket 11) | DRSC02737 | 2.03e5 | 1.54e5 | 9.74e5 | 7.32e5 | inactive |
| CG10462 | DRSC02058 | 9.70e5 | 7.46e5 | 1.01e6 | 9.11e5 | inactive |
| CG1910 | DRSC15400 | 66799 | 81877 | 5.43e5 | 5.13e5 | inactive |
| CG1910 | DRSC39143 | 6.46e5 | 7.14e5 | 1.27e6 | 1.15e6 | inactive |
| CG2871 | DRSC18230 | 4.83e5 | 5.27e5 | 2.38e6 | 2.84e6 | inactive |
| CG2871 | DRSC21719 | 5.13e5 | 5.58e5 | 2.83e6 | 3.40e6 | inactive |
| opm (opossum) | DRSC20141 | 1.09e5 | 63138 | 1.19e6 | 9.69e5 | active |
| opm (opossum) | DRSC22135 | 4.71e5 | 5.84e5 | 1.64e6 | 1.50e6 | inactive |
| opm (opossum) | DRSC29575 | 4.07e5 | 3.97e5 | 5.22e5 | 5.22e5 | inactive |
| CG6443 | DRSC02958 | 1.19e6 | 5.28e5 | 3.01e6 | 1.79e6 | inactive |
| CG6443 | DRSC30036 | 3.93e5 | 2.95e5 | 9.74e5 | 1.11e6 | inactive |
| Klp98A (Kinesin-like protein at 98A) | DRSC16724 | 3.19e5 | 2.32e5 | 3.60e6 | 3.67e6 | inactive |
| Klp98A (Kinesin-like protein at 98A) | DRSC21834 | 5.89e5 | 5.98e5 | 2.39e6 | 2.84e6 | inactive |
| Zmynd8 (Zinc finger MYND-type containing 8) | DRSC15310 | 1.22e5 | 88907 | 6.74e5 | 4.97e5 | inactive |
| Zmynd8 (Zinc finger MYND-type containing 8) | DRSC29554 | 3.49e5 | 2.80e5 | 5.81e5 | 5.81e5 | inactive |
| Prp39 (pre-mRNA processing factor 39) | DRSC15133 | 21966 | 23352 | 4.66e5 | 3.47e5 | active |
| Prp39 (pre-mRNA processing factor 39) | DRSC25186 | 1.44e6 | 1.59e6 | 9.03e5 | 1.07e6 | inactive |
| RpL24 (Ribosomal protein L24) | DRSC03185 | 1.63e5 | 1.32e5 | 8.00e5 | 8.07e5 | inactive |
| RpL24 (Ribosomal protein L24) | DRSC28724 | 3.76e5 | 3.26e5 | 7.60e5 | 6.98e5 | inactive |
| CG3288 | DRSC11745 | 2.56e5 | 1.85e5 | 2.72e6 | 2.25e6 | inactive |
| CG12768 | DRSC23215 | 4.78e5 | 4.30e5 | 1.53e6 | 1.91e6 | inactive |
| CG12768 | DRSC28549 | 4.18e5 | 6.72e5 | 6.54e5 | 1.21e6 | inactive |
| Stat92E | DRSC16870 | 55251 | 57158 | 7.07e5 | 7.33e5 | inactive |
| Stat92E | DRSC37655 | 4.84e5 | 4.31e5 | 1.49e6 | 1.19e6 | inactive |
| CG10694 | DRSC14263 | 1.71e5 | 1.78e5 | 2.33e6 | 2.11e6 | inactive |
| CG32712 | DRSC17820 | 1.85e5 | 1.59e5 | 7.36e5 | 6.12e5 | inactive |
| Ser12 (Serine protease 12) | DRSC00786 | 1.46e5 | 82947 | 7.68e5 | 6.43e5 | inactive |
| CG17490 | DRSC03797 | 1.71e5 | 1.39e5 | 1.41e6 | 9.48e5 | inactive |
| CG17490 | DRSC26780 | 4.33e5 | 3.91e5 | 6.50e5 | 5.96e5 | inactive |
